From article PMC7918530
These are yes or no findings as the source states them, for the method shown. Binding seen in cells or lysates may run through a third protein. A result given as binding can be weak or reduced; the word gives no strength.

Molecular target: T1, Upf1 (rat (endogenous in PC12 cells and sympathetic neurons))
T1 sequence: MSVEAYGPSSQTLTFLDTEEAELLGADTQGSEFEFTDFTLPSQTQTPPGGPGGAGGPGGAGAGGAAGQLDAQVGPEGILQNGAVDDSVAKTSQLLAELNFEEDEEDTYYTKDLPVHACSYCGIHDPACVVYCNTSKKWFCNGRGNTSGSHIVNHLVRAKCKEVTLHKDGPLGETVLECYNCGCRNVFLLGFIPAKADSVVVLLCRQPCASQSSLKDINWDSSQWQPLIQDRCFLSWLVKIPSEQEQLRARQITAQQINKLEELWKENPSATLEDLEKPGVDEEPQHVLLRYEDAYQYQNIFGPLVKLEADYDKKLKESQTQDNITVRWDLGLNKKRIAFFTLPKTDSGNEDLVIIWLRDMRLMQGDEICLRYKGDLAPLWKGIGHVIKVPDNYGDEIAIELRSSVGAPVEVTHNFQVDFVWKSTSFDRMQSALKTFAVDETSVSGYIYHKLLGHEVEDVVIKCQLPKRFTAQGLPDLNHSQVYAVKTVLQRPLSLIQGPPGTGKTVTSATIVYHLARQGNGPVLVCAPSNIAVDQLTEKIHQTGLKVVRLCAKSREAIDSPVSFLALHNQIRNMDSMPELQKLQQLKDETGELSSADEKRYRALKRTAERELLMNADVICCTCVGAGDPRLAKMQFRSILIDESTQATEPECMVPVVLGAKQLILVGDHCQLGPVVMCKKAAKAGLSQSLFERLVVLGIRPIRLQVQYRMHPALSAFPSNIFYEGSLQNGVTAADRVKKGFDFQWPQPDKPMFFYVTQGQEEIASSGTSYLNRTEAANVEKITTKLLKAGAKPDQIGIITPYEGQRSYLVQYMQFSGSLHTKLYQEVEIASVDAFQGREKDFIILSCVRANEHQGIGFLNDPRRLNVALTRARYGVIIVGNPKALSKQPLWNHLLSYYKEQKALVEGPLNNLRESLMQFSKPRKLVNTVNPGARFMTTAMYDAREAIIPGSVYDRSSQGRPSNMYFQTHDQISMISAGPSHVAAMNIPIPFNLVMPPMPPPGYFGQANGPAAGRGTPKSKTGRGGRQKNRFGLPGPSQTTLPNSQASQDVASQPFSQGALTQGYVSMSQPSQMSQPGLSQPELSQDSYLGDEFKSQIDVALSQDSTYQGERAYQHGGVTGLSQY
Experiment: co-IP; sympathetic neurons lysed in RIPA buffer; 0.5-1 mg pre-cleared lysate with 2 ug antibody overnight at 4°C, protein A-agarose beads, washes with RIPA buffer, western blot

Substance: Poly(A)-binding protein cytoplasmic 4 (Pabpc4) (rat (endogenous in sympathetic neurons))
- binding: binds
